Assay results reported in publication PMC4909395.
No constants are given. Whether binding was seen depends on the method and setting. In cells and extracts the contact can be indirect. Some binding calls cover weakened binding; strength is not graded here. For part of these data: Where a sequence is shown, tags or fusion partners need not be part of it. One block for each molecule: values may come before it.

The chains behind the UniProt entries cited, without tags or fusion partners.
UniProt O14744: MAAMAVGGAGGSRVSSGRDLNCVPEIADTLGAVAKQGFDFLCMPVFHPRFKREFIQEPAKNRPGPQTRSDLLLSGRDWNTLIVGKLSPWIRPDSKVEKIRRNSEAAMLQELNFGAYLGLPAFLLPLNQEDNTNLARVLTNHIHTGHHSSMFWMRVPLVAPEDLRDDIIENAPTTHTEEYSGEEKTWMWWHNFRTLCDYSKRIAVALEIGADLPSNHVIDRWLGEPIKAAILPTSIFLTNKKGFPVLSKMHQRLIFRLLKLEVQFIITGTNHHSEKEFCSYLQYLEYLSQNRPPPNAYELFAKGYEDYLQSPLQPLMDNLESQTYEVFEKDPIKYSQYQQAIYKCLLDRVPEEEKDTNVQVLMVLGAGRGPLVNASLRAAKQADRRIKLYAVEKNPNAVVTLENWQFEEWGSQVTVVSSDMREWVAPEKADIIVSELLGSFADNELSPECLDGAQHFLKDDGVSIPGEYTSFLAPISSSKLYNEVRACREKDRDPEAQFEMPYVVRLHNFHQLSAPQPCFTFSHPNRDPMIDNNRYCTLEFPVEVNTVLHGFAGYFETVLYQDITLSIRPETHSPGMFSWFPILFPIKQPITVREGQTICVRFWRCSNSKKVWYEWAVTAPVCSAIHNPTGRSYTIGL

Key:
[1] = target: T1, ERG (endogenous, from TMPRSS2:ERG-positive VCaP cells) (human (endogenous in VCaP)) (UniProt P11308); assay: co-IP; VCaP cells, untreated or R1881-treated; ERG or control IgG antibody coupled to magnetic beads, incubated with lysate overnight at 4 °C, washed with RIPA buffer; western blot
T1 sequence: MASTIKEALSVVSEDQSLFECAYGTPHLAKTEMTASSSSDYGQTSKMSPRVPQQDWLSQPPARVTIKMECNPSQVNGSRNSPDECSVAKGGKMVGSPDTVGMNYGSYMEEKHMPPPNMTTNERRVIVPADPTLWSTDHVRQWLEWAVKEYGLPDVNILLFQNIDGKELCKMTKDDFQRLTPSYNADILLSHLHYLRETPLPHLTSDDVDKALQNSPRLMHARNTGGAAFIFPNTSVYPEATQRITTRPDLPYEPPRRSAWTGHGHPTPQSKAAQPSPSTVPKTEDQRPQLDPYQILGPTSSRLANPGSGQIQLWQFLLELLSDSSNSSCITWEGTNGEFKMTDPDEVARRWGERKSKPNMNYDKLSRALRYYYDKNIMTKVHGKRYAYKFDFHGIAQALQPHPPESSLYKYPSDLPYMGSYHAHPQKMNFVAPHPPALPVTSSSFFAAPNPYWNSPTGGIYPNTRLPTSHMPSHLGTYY

HA-ERG = target: T2, HA-ERG (UniProt P11308); assay: co-IP; PC3 cells (AR-negative) overexpressing HA-ERG and V5-PRMT5; immunoprecipitation of HA-ERG, western blot
T2 sequence: T1 sequence

[2] = target: T3, ERG (exogenous, Dox-inducible, in 22Rv1 cells) (UniProt P11308); assay: co-IP; 22Rv1 cells expressing exogenous ERG or DNA-binding defective ERG ('Dx'), with or without PRMT5 knockdown; ERG immunoprecipitation, western blot for ERG and PRMT5
T3 sequence: T1 sequence

FLAG-PRMT5 = FLAG-PRMT5 (UniProt O14744); assay: co-IP; 293 cells (AR-negative) overexpressing FLAG-PRMT5 and ERG constructs; immunoprecipitation of FLAG-PRMT5, western blot

binding [1]: binds
Molecule: Androgen Receptor (endogenous, VCaP cells) (from UniProt P10275-1 1-920)

binding (HA-ERG): binds
Molecule: V5-PRMT5 (from UniProt O14744 1-637) (enzyme)

binding [2]: binds
binding [1]: binds
Molecule: PRMT5 (endogenous) (from UniProt O14744 1-637) (enzyme)

binding (FLAG-PRMT5): binds
B1: ERG FL: full-length ERG (protein, UniProt P11308 1-479)
chain: T1 sequence

binding (FLAG-PRMT5): binds
B2: GFP-ERG (protein, UniProt P11308 1-479)
chain: T1 sequence
